Measurements as given in paper PMC11831473 (Advanced Science, 2024).
These are yes or no findings as the source states them, for the method shown. Binding seen in cells or lysates may run through a third protein. Some binding calls cover weakened binding; strength is not graded here.

Amino acid sequences for entries named in this document (tags omitted).
UniProt P05412: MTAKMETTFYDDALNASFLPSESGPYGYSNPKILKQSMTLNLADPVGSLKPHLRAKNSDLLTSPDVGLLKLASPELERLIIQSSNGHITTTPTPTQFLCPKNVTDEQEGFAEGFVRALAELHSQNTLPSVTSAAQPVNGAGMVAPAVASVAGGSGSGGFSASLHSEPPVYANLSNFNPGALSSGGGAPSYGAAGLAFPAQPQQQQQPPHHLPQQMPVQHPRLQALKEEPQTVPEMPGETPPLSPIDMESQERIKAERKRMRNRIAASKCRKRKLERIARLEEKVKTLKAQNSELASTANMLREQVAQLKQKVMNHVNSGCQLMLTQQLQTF
UniProt P40763: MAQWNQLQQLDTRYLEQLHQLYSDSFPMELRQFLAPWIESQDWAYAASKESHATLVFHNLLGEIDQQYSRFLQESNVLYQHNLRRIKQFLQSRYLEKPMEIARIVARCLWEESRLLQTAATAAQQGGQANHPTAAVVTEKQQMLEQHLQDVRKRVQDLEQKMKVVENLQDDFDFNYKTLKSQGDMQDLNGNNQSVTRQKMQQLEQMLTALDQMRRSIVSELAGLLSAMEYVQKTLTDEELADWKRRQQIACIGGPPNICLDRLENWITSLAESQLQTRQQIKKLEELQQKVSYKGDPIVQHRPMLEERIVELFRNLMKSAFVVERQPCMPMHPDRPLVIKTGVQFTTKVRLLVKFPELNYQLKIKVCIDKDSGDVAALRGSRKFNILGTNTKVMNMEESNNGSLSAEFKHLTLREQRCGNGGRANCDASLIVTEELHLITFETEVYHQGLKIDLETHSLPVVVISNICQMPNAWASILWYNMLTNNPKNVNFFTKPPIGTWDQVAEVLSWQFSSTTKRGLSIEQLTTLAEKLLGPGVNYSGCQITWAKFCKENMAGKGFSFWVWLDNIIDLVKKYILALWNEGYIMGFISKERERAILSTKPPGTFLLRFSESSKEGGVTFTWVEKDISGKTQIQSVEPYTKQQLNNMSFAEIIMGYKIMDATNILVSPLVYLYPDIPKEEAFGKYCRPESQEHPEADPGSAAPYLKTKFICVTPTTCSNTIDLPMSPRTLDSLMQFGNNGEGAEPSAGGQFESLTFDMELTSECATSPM
UniProt Q04206: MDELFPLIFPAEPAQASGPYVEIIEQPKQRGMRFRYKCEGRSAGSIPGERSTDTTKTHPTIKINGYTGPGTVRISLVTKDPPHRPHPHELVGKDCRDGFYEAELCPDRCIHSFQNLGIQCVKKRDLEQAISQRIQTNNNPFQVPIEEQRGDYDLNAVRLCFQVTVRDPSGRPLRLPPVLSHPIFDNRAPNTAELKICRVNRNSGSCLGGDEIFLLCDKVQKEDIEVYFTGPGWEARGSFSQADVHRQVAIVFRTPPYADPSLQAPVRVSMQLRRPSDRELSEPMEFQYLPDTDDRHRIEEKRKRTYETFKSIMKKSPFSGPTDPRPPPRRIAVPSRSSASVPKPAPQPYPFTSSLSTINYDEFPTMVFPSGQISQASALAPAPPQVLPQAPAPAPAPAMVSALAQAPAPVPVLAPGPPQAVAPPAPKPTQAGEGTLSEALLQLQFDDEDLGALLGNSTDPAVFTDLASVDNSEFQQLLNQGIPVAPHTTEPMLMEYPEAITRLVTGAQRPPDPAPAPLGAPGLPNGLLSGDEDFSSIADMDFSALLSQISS

Columns and labels:
[1] = molecular target: T1, TRAF4, exogenously expressed in HEK‐293T cells (UniProt Q9BUZ4); assay: co-IP; exogenous TRAF4 and c‐Jun expressed in HEK‐293T cells; immunoblot (Figure 5C)
T1 sequence: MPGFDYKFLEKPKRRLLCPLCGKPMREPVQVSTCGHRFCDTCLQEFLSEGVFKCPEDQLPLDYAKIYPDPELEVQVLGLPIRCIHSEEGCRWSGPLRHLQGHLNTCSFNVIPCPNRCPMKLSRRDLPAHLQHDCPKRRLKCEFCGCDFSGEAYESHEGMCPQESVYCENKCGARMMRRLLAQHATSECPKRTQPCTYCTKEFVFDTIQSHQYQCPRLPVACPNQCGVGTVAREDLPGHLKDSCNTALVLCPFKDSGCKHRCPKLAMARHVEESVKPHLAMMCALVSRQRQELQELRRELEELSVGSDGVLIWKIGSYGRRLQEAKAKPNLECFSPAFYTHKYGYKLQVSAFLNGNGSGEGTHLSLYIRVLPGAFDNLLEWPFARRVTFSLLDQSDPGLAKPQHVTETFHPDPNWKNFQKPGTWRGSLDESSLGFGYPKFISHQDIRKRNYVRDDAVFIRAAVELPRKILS

[2] = molecular target: T2, Tumor necrosis factor receptor‐associated factor 4 (TRAF4), endogenous (human (endogenous in HCT116, MDA‐MB‐231, U‐87 MG, RKO, LM2‐4175, LN229)) (UniProt Q9BUZ4); assay: co-IP; lysates of HCT116, MDA‐MB‐231 and U‐87 MG cells; TRAF4 tested against transcription factors; antibodies on Protein A/G magnetic beads, 4 °C overnight; immunoblot (Figure 5B)
T2 sequence: T1 sequence

Row | binding [1] | Substance | binding [2]
1 | binds | c‐Jun, exogenously expressed in HEK‐293T cells (from UniProt P05412 1-331) | –
2 | – | STAT3 (from UniProt P40763 1-770) | no binding
3 | – | c‐Jun, endogenous (from UniProt P05412 1-331) | binds
4 | – | NF‐κB (from UniProt Q04206 1-551) | no binding
